# Test results: PubChem BioAssay AID1688 (National Center for Advancing Translational Sciences (NCATS), 2009)
# About 2,400 (1.1%) of roughly 220,000 compounds were called active. Inconclusive results, whose numbers are uncertain, are shown with a selection of clear calls. Calls come from the whole dose curve; as a rule, active = well fitted inhibition curve with a large enough effect; inconclusive = small, poorly fitted or top-dose-only effect, or effect the other way; inactive = no such curve, though single readings can be large or run the other way. Potencies beside an inconclusive call are fits to weak or partial responses and may not hold up.
# Test: qHTS Multiplex Assay to Identify Dual Action Probes in a Cell Model of Huntington: Aggregate Formation (GFP); note: nearly all actives have a fitted effect of over 60% in size
# Conditions: PC12 HttQ103-GFP aggregates, Acumen cytometry, 40 h; activity change, negative = inhibition: at 46.1 µM (top of the series) unless noted
# Method in brief: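 Aggregate formation scored by laser-scanning cytometer (488 excitation, 500–530 emission) in lysed PC12 cells expressing Q103-GFP after 100 nM tebufenozide induction; library tested in dose series, with ATPLite reagent added in the multiplex.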
# % is set by controls: 0 for no effect and ±100 for the full control effect; potency is the fitted concentration of half-maximal effect.
SMILES,Potency,"activity change, negative = inhibition"
O=c1oc2ccccc2c(O)c1C=NCc1ccccn1,"inconclusive: 35.5 µM [inhibitor, single point]",
C/C(=N\Nc1ccc([N+](=O)[O-])cc1)c1ccc(O)cc1,"inconclusive: 35.5 µM [inhibitor, single point]",
COC(=O)c1cccc(NC(=S)NCc2ccc(Cl)cc2)c1,inactive,
COc1ccccc1NC(=S)NCCC(c1ccccc1)c1ccccc1,"inconclusive: 35.5 µM [inhibitor, single point]",
CC(C)(C)C(=O)Nc1ccc(C(=O)N/N=C/c2ccccc2OC(=O)c2ccccc2)cc1,active: 11.2 µM,
S=c1[nH]nc(-c2ccncc2)n1/N=C/C=C/c1ccco1,"inconclusive: 7.08 µM [inhibitor, partial curve]",
CC1=CC(=O)c2ccccc2C1=O,inactive,
CCCOc1ccc(Cc2c(Cl)nc(SC)nc2NC)cc1,"inconclusive: 11.2 µM [inhibitor, partial curve]",
CCOC(=O)c1c(NC(=O)C(=O)N/N=C/c2ccccc2O)sc2c1CCCCC2,"inconclusive: 1.58 µM [inhibitor, full curve]",
COc1ccc(CSc2nnc3n(C)c(=O)c4c5c(sc4n23)CCCC5)cc1,"inconclusive: 1.26 µM [activator, single point]",
O=C(O)CCC(=O)c1cccc2ccccc12,inactive,
COc1ccccc1NC(=O)c1sc2ncn(Cc3cccc4ccccc34)c(=O)c2c1C,inactive,
Cc1[nH]n(-c2ccccc2)c(=O)c1/C=N/NC(=O)COc1ccccc1[N+](=O)[O-],"inconclusive: 10 µM [inhibitor, partial curve]",
CC(=O)c1c(C)[nH]c(C(=O)OC2CCOC2=O)c1C (stereo not given),inactive,
N#Cc1ccc(CSc2ncnc3c2cnn3Cc2ccccc2)cc1,"inconclusive: 35.5 µM [inhibitor, single point]",
O=C(CCc1nc2ccccc2s1)N1CCN(S(=O)(=O)c2cccs2)CC1,"inconclusive: 35.5 µM [inhibitor, single point]",
Cc1ccc(C(=O)Nc2sc3c(c2C(=O)NCc2ccco2)CCCC3)cc1,inactive,
CCOC(=O)N1CCC(N2C(=O)c3ccc(C(=O)Nc4ccc(F)cc4F)cc3C2=O)CC1,"inconclusive: 0.562 µM [activator, full curve, poor fit]",
O=C(Cn1cncn1)c1ccccc1,,inactive: -3.19% [at 9.22 µM]
Cc1c(NC(=O)CSc2nc3ccc(Cl)cc3[nH]2)c(=O)n(-c2ccccc2)n1C,"inconclusive: 8.91 µM [activator, partial curve]",
NC(=O)CSc1nnc(CSc2ncccn2)n1-c1ccccc1,inactive,
CCOC(=O)C(=CNc1ccc(NC2=NCC(C)S2)cc1)C(=O)OCC (stereo not given),"inconclusive: 12.6 µM [activator, partial curve]",
CN(C)CCOc1ccccc1Cc1ccccc1,inactive,
CC(=O)Nc1ccc2nc(SCC(=O)NCCOc3ccccc3)sc2c1,inactive,
CCOC(=O)C(=CNc1ccc2c(c1)nnn2-c1ccc(Cl)cc1)C(=O)OCC,inactive,

# Four entries drawn at random from those above, as already listed:
SMILES,Potency,"activity change, negative = inhibition"
COC(=O)c1cccc(NC(=S)NCc2ccc(Cl)cc2)c1,inactive,
CC1=CC(=O)c2ccccc2C1=O,inactive,
CCOC(=O)C(=CNc1ccc(NC2=NCC(C)S2)cc1)C(=O)OCC (stereo not given),"inconclusive: 12.6 µM [activator, partial curve]",
CC(C)(C)C(=O)Nc1ccc(C(=O)N/N=C/c2ccccc2OC(=O)c2ccccc2)cc1,active: 11.2 µM,

# The list goes on.

SMILES,Potency,"activity change, negative = inhibition"
CCOC(=O)c1c(C)[nH]c(C(=O)CSc2nnc(-c3ccncc3)n2CC)c1C,inactive,
COc1ccc(N2CCn3c2nc2c3c(=O)n(CCCc3ccccc3)c(=O)n2C)c(OC)c1,active: 11.2 µM,
CC(Oc1ccc2ccc(=O)oc2c1)C(=O)c1ccccc1 (stereo not given),"inconclusive: 28.2 µM [activator, single point]",
CCOC(=O)N1CCN(C(=O)c2ccc(NS(=O)(=O)c3ccc(F)cc3)cc2)CC1,"inconclusive: 17.8 µM [inhibitor, single point]",
O=c1[nH]c(C2CCCN(S(=O)(=O)c3ccccc3)C2)nc2c1nnn2Cc1ccccc1F (stereo not given),inactive,
Cc1c(C(=O)N2CCCC2)sc(NC(=O)c2cccc(Cl)c2)c1C#N,"inconclusive: 11.2 µM [inhibitor, partial curve]",
Cc1cccc(C(=O)Nc2cc(OCc3cccc(F)c3)c(Cl)cc2Cl)c1,inactive,
CC(C)c1ccc(OCc2nc(-c3ccccn3)no2)c(Br)c1,inactive,
COC(=O)c1c(C)oc2ccc(N(C(=O)c3ccncc3)S(=O)(=O)c3ccc4ccccc4c3)cc12,"inconclusive: 28.2 µM [inhibitor, partial curve]",
CCn1c2ccccc2c2cc(NC(=O)CNCC3CCCO3)ccc21 (stereo not given),inactive,
Cc1ccc(-c2cnc(NC(=O)CCC(=O)N(C)Cc3ccccc3)n2C)cc1,"inconclusive: 17.8 µM [inhibitor, single point]",
Cc1ccc(NC(=O)c2cncc(Br)c2)c(O)c1,,inactive: -33.6% [at 9.22 µM]
N=c1cc(C2(O)CCCCC2)n2c(nc3ccccc32)s1,"inconclusive: 0.501 µM [activator, full curve, poor fit]",
COc1ccc(/C=C/C(=O)C2CC2)cc1COc1cccc(C)c1C,,inactive: -8.99% [at 9.22 µM]
O=C(OCc1nnc(-c2ccccc2)o1)c1cc([N+](=O)[O-])ccc1Cl,inactive,
Cc1c(C(=O)Nc2ccc(Cl)cc2)c2ccccn2c1CCc1ccncc1,"inconclusive: 15.8 µM [inhibitor, single point]",
CCS(=O)(=O)c1ccc(OC)c(N=Nc2ccc(O)c3ncccc23)c1,active: 7.94 µM,
Cc1cccc(C)c1NC(=O)C(C)c1ccc(-c2ccccc2)c(F)c1 (stereo not given),active: 17.8 µM,
O=C(COC(=O)C1(c2ccccc2F)CCCC1)NC1CCS(=O)(=O)C1 (stereo not given),"inconclusive: 3.16 µM [inhibitor, partial curve]",
Cc1ccccc1CNC(=O)Nc1cccs1,inactive,
Cc1c(NC(=O)c2cc(-c3cccs3)on2)c(=O)n(-c2ccccc2)n1C,inactive,
CC(=O)c1ccc(-c2ccc(C(=O)N3CCCc4ccccc43)o2)cc1,inactive,
Cc1ccc2occ(C(c3nnnn3Cc3ccccc3)N3CCOCC3)c(=O)c2c1 (stereo not given),"inconclusive: 11.2 µM [activator, partial curve]",
CC1(C)CC(=O)C(C(N)=NC(=O)c2ccc([N+](=O)[O-])cc2)=C(O)C1,inactive,
CN1CCN(c2ccc(S(=O)(=O)N3CCCCC3)cc2NC(=O)c2ccc3ccccc3c2)CC1,inactive,

SMILES,Potency,"activity change, negative = inhibition"
CCOc1ccccc1OCCC(=O)OCC(=O)c1ccc[nH]1,inactive,
CCCCCCCCOC(=O)C1=C(C)Nc2nnnn2C1c1cccs1 (stereo not given),"inconclusive: 35.5 µM [inhibitor, single point]",
CCCCC(CC)CNC(=O)c1cccs1 (stereo not given),"inconclusive: 14.1 µM [inhibitor, partial curve]",
CC(C)c1cc(NC(=O)c2ccccc2)cc(C(C)C)c1O,active: 11.2 µM,
O=C1ON=C(c2ccccc2)/C1=C/c1ccc(-c2ccccc2[N+](=O)[O-])o1,inactive,
Cc1cc(N2CCCCC2)n2nc(C)c(-c3ccccc3)c2n1,"inconclusive: 12.6 µM [inhibitor, partial curve]",
CC(C)(C)C1CCC(OC(=O)C[N+]2(C)CCCCC2)CC1 (stereo not given),"inconclusive: 15.8 µM [inhibitor, single point]",
CCOC(=O)c1[nH]c2ccc(OC)cc2c1NC(=O)OC,"inconclusive: 14.1 µM [inhibitor, single point]",
O=c1[nH]nc(CNc2ccc(O)cc2)c2ccccc12,"inconclusive: 31.6 µM [activator, single point]",
CC(=C\C(=O)O)/C(=C/c1ccc(C)o1)C(=O)O,"inconclusive: 35.5 µM [activator, single point]",
NC1=CC(=O)c2cccc3cccc1c23,"inconclusive: 3.98 µM [activator, partial curve]",
O=C(CSc1c(Cl)cccc1Cl)NC1CCCc2ccccc21 (stereo not given),inactive,
COc1cc(CNn2nnnc2N)cc(Br)c1OCc1c(Cl)cccc1Cl,"inconclusive: 22.4 µM [inhibitor, single point]",
CCCCCCN1C=CC(=C2C(=O)c3ccccc3C2=O)C=C1,,inactive: 24.4% [at 9.22 µM]
O=C(Cn1cnc2cc([N+](=O)[O-])ccc2c1=O)NCc1ccccc1,"inconclusive: 7.94 µM [activator, partial curve, poor fit]",
C/C(=N\OCc1nc2ccccc2c(=O)n1/N=C/c1cc([N+](=O)[O-])ccc1O)c1ccccc1,,inactive: 4.07% [at 9.22 µM]
Cc1ccnc(N=Cc2c(O)ccc3oc4c(c23)CCCC4)c1,"inconclusive: 12.6 µM [inhibitor, single point]",
O=C(/C=C/c1cccnc1)c1cc(F)ccc1O,,inactive: 6.31% [at 9.22 µM]
OC(CNCCc1ccc(C(F)(F)F)cc1)COc1ccc2ccccc2c1 (stereo not given),"inconclusive: 31.6 µM [inhibitor, single point]",
Cc1nc(C)c(-c2csc(NCCc3ccccc3)n2)s1,"inconclusive: 22.4 µM [inhibitor, single point]",
Cc1c(N2C(=O)/C(=C/c3ccccc3)SC2=S)c(=O)n(-c2ccccc2)n1C,"inconclusive: 6.31 µM [activator, full curve]",
COC(=O)C1=C(C)NC(C)=C(C(=O)OC)C1C(=O)OCC(=O)N1c2ccccc2CC1C (stereo not given),"inconclusive: 0.562 µM [activator, full curve, poor fit]",
CCCNC(=O)COC(=O)c1ccc(S(=O)(=O)N2CCCCCC2)cc1,inactive,
CC1CCC(C(C)C)C(OC(=O)Cn2c(-c3ccc(Cl)cc3)[n+](C)c3ccccc32)C1 (stereo not given),"inconclusive: 5.62 µM [inhibitor, single point]",
CC1(C)Oc2ccc(/C=C/C(=O)N3CCOCC3)c(O)c2C(N2CCOCC2)C1O (stereo not given),"inconclusive: 3.55 µM [inhibitor, single point]",
